In the supplement of paper PMC5949888:
Most values lie at the floor of the assay. Slopes are relative: functional sequences can read slightly below zero.

Each substance was assayed on Saccharomyces cerevisiae PS128 hsf1 delta, HSF1(1-493) fusion (assay: growth estimate (transactivation domain function in HSF1 fusion, heat-shock survival) (a.u. (slope of normalised read count over time)); higher = stronger growth at 37°C, i.e. more transactivation activity). Details: library: random library.
In the case of GTVATMMCA, the growth estimate is reported as < -0.25. VAPVCRPRHLVCEPSLLSSG was tested, and the growth estimate was < -0.25. IGSRKDLYRKPIR was tested, and the growth estimate was < -0.25. For SMCSWNAQTGSLVLHEVLSR, the growth estimate was < -0.25. For YHGS, the growth estimate was < -0.25. IGFVEGCQELHNLNALVLTW was tested, and the growth estimate was < -0.25. GSHTGQMHLALFREVD was tested, and the growth estimate was < -0.25. In the case of GGGRARSEPPWDAMTAVIKF, the growth estimate is reported as < -0.25. AIHILR gave a growth estimate of -0.145. In the case of TERRESPSMIKYDGVGLSVR, the growth estimate is reported as < -0.25. For VEYGCVCGRVNY, the growth estimate was < -0.25. In the case of LRVIEIVAVLGAVPV, the growth estimate is reported as < -0.25. With RRSKDV the growth estimate was < -0.25. For GRNGNCTCGVLSNKDVPAHV, the growth estimate was < -0.25. YRW was tested, and the growth estimate was < -0.25. With PYLQAGNRAFRPLHEVHMQS the growth estimate was < -0.25. In the case of ERGARSWTPEVVLLIRSAKL, the growth estimate is reported as < -0.25. RRCIGV was tested, and the growth estimate was < -0.25. MRGYW was tested, and the growth estimate was < -0.25. For YDRANQYLKVYLAPWAVLLH, the growth estimate was < -0.25. In the case of TGIGEACKSSQERSGSCMRC, the growth estimate is reported as < -0.25. With LISVAALRLLARAHLVNSA the growth estimate was < -0.25. CAASSEPTTVRPM was tested, and the growth estimate was < -0.25. For AILWTASHT, the growth estimate was < -0.25. With GIFC the growth estimate was < -0.25. With RDMGCVQEGTTHLLSSRPRV the growth estimate was < -0.25. For SPGWVSVVPLRRPWWWCKKS, the growth estimate was < -0.25. In the case of RWILAHC, the growth estimate is reported as < -0.25. For CELHFPSTNQSRRDTLEKQV, the growth estimate was < -0.25. Work on FSKPQALYNLVTDADEKCSV yielded a growth estimate of -0.217. For GFARFPANPPEGPNEKVRSL, the growth estimate was < -0.25. With WRGRINWLH the growth estimate was < -0.25. IFSWRKGPLVLYWQ was tested, and the growth estimate was < -0.25. With IMENLRG the growth estimate was < -0.25. With SLLRDRSWTSHDLVLGVQVE the growth estimate was < -0.25. In the case of SGVMTPYTNSLRRRG, the growth estimate is reported as -0.246. For VYRAVHRPRGMRAGQLHICD, the growth estimate was < -0.25. With PACGHGDLSFNQFSHGYDGR the growth estimate was < -0.25. In the case of SII, the growth estimate is reported as < -0.25. SVQAGGRMLHSTQVLGGAGE was tested, and the growth estimate was < -0.25. SETPLHRYRAWYARN was tested, and the growth estimate was < -0.25. TCVAKNGTLLSLGAGSLGSP was tested, and the growth estimate was < -0.25. MVRLIRVLSMPRGQSLLGVT was tested, and the growth estimate was < -0.25. For KSGQLSILSWFTACVKPSQS, the growth estimate was < -0.25. With QAVPSRDRHSLRIL the growth estimate was < -0.25. RVLRPRPHLLRGD was tested, and the growth estimate was < -0.25. With MRTPQMTIREICRLVQCLLV the growth estimate was < -0.25. In the case of NYSLFGRRGNMWDSSHGTRQ, the growth estimate is reported as < -0.25. In the case of RSLVEWKPNSRCCMLESRRS, the growth estimate is reported as < -0.25. For LLLESSVETSCGSQF, the growth estimate was < -0.25. For AIME, the growth estimate was < -0.25. KCLCNET was tested, and the growth estimate was < -0.25. With SQSIC the growth estimate was < -0.25. With SNRTGSAVRQRVVDRESSPT the growth estimate was < -0.25. PWLVTKRWTCILIFAVVSQG was tested, and the growth estimate was < -0.25. For RELL, the growth estimate was < -0.25. In the case of TLSYQIRQRPTRPLINTPPA, the growth estimate is reported as < -0.25. With LDLSGERVRREAAI the growth estimate was < -0.25. LFFFKQFPSTE was tested, and the growth estimate was < -0.25. YHNGRL was tested, and the growth estimate was < -0.25. In the case of YEP, the growth estimate is reported as < -0.25. With VQCANGGPRVEGGDGGASYM the growth estimate was < -0.25. In the case of AMLLHAQYSYSCWERRTRYG, the growth estimate is reported as < -0.25. In the case of SKNYMD, the growth estimate is reported as < -0.25. For GVSRYMG, the growth estimate was < -0.25. RRSYPAV was tested, and the growth estimate was < -0.25. In the case of FALEVDREAAVSLGYHSWSP, the growth estimate is reported as < -0.25. With QWCRVNLGTVCGLCPRAPYA the growth estimate was < -0.25. With LYAGTRANSTYVRVHISACG the growth estimate was < -0.25. WQVLYSVNVCTKRGYRRLNG was tested, and the growth estimate was < -0.25. SRSEGPTPERQNVLTLTNAS showed a growth estimate of -0.246. In the case of HNVPWVWNTSGFAN, the growth estimate is reported as < -0.25. For SQVSVFMRPLAYTSNRTDVQ, the growth estimate was < -0.25. CQR was tested, and the growth estimate was < -0.25. With LLVWSS the growth estimate was < -0.25. KESRVTQRKC was tested, and the growth estimate was < -0.25. DQHTQEPKVNISRKHRTGLA was tested, and the growth estimate was < -0.25. With SLHSSHAVKAWTKRWQGKTR the growth estimate was < -0.25. In the case of LVDTFRTRIYESM, the growth estimate is reported as < -0.25. With VLRGQPLEMPFGMDLLFLHR the growth estimate was < -0.25. For RMKSGLAYTQRFK, the growth estimate was < -0.25. With LNGPTYIIPVAVRGNLSAFQ the growth estimate was < -0.25. For DSITRETAVARAAVTNETHH, the growth estimate was < -0.25. For LKIFGEHLFRVPRP, the growth estimate was < -0.25. In the case of PMAVAGRSA, the growth estimate is reported as < -0.25. In the case of AERYRVLTANV, the growth estimate is reported as < -0.25. With LKEWAHLRHLHYPRLSNAGV the growth estimate was < -0.25. With LGPGNCPLSRWDLDRYGGVA the growth estimate was < -0.25. For YPYIITAPYLGGVRH, the growth estimate was < -0.25. CIKRDPQISAKMRERFSLEW was tested, and the growth estimate was < -0.25. With WYLAVLAA the growth estimate was < -0.25. With GFNLGWGQASSCASLGRGEH the growth estimate was < -0.25. In the case of PRTTIPTVHGGLELRTQTNA, the growth estimate is reported as < -0.25. For GPPCGT, the growth estimate was < -0.25. With YGRHYGKALRGGRT the growth estimate was < -0.25. GRCVYFQSVGYRSWGKGTIQ was tested, and the growth estimate was < -0.25. In the case of SLCKSRPRVPFREDGLGGPY, the growth estimate is reported as < -0.25. With HSFIRRFLACFVFTFRGAFS the growth estimate was < -0.25. In the case of DLSRGRASGGAL, the growth estimate is reported as < -0.25. GVSFMRLTLLNSTYVPLSFF was tested, and the growth estimate was < -0.25. With WAGTEPKWGDWVPISESSGK the growth estimate was < -0.25. For RNRTTTRIRGAKRL, the growth estimate was < -0.25. GPTKRNVPLGETLRDRKTDP was tested, and the growth estimate was < -0.25. Work on TQRGTGHAPMGWRDYTWYDE yielded a growth estimate of 0.183. With RIVTRRRAEGLVSENIPCLS the growth estimate was < -0.25. AGHILGAQSTNRSSGWPVAS was tested, and the growth estimate was < -0.25. For SCERVMRRGTQLSSLWKCTA, the growth estimate was < -0.25. For LTIVACYVREHITHN, the growth estimate was < -0.25. YFPYINLLLAARYLRFRVRT gave a growth estimate of -0.231. For IPHRHFSGRKLLTQHYLGPS, the growth estimate was < -0.25. In the case of EDRGEHTWNTSRCTWVTWEI, the growth estimate is reported as < -0.25. For WTGSAWSVRGRFERDPTSTA, the growth estimate was 0.0715. With FGSLQARPSNQTRQPQP the growth estimate was < -0.25. With AVGHHQGVASKLRASPVTSI the growth estimate was < -0.25. For TTRPNW, the growth estimate was < -0.25. NWLTGV was tested, and the growth estimate was < -0.25. For RWIIAHDDHYPQYAAPVSRS, the growth estimate was < -0.25. With VSMHRLCLTRGRD the growth estimate was < -0.25. With LPLGFMQSRS the growth estimate was < -0.25. For VSERFNSCDVSRPGRESVFA, the growth estimate was < -0.25. In the case of VAIRVRGSLGVENSGSPRSS, the growth estimate is reported as < -0.25. In the case of FRSSVTFSESLLDGRVHAWC, the growth estimate is reported as < -0.25. In the case of ESLRNRGFRKEDESTRPTGP, the growth estimate is reported as < -0.25. For SELHCETKSRSTIPEPESPN, the growth estimate was < -0.25. RGQWQCLPSAAIEFHSNEGP was tested, and the growth estimate was < -0.25. Work on ERTPAQVHQIEQKSRFLRRI yielded a growth estimate of -0.238. With VGYCQVGGH the growth estimate was < -0.25. With LRSRKQMPASRE the growth estimate was < -0.25. In the case of PPVRARAIVALVCSERTAPA, the growth estimate is reported as < -0.25. HEGVLTCPSP was tested, and the growth estimate was < -0.25. With CKC the growth estimate was -0.243. In the case of YGVQVADHQDILEFNLVPKT, the growth estimate is reported as < -0.25. For LHHSTGRRGRVGETSTTHSQ, the growth estimate was < -0.25. With GVSVD the growth estimate was < -0.25. GFEIRKTGTHDAPVASLRVP was tested, and the growth estimate was < -0.25. For DYL, the growth estimate was < -0.25. For THLFQVRWLTSHNEGAVVMS, the growth estimate was < -0.25. Substance DFNKPTDAG has a growth estimate of 0.207. With RVLSLCER the growth estimate was < -0.25. In the case of IQGFEQCVWSHVYSSSI, the growth estimate is reported as < -0.25. With YLLWPIHYYALITQSRRLTH the growth estimate was < -0.25. With DTNTGVRGRQNLAEDH the growth estimate was < -0.25. GGMPWQFSL gave a growth estimate of -0.174. YLAKPRK was tested, and the growth estimate was < -0.25. VIVSRILLKGLWELGTLGRY showed a growth estimate of 0.0558. NMKYPTNSDRKLAVL was tested, and the growth estimate was < -0.25. For QIRVSILSQVGATR, the growth estimate was < -0.25. For QLLRSNTLRP, the growth estimate was < -0.25. With SVSM the growth estimate was < -0.25. In the case of GGTKRIMSYLGRRIPVRYAC, the growth estimate is reported as < -0.25. With CKARWHVLCTEDSGQPKRRL the growth estimate was < -0.25. With VGCFADKTFGPHNTIAGSTP the growth estimate was < -0.25. For NTGLHTVSVDRVQSKYSVSQ, the growth estimate was < -0.25. TVLGIRSRY was tested, and the growth estimate was < -0.25. With PPH the growth estimate was < -0.25. For RVGSPRSLIGV, the growth estimate was < -0.25. For GCYRLSLTW, the growth estimate was < -0.25.
